For this test, the target named is human matrix metalloprotease 2, activated (human). The experiment in a line: native gel or EMSA; MMP2 added to A2M at 6:1 mol/mol MMP2:A2M in HBS with 10 mM CaCl2, 15 min at 37 °C, stopped with 20 mM EDTA; pore-limited native PAGE and reducing SDS-PAGE; both purified. In general terms: In EMSA bound probe runs differently from free probe, usually more slowly.

Binding data for one molecule are collected here from PMC8267569, “Development of selective protease inhibitors via engineering of the bait region of human α2-macroglobulin” (The Journal of Biological Chemistry, 2021).

Results are given in words; binding and its absence hold for the method and conditions named. Binding can be weak; no strength is given.

B1: recombinant wild-type human α2-macroglobulin (protein, UniProt P01023 24-1474)
chain: SVSGKPQYMVLVPSLLHTETTEKGCVLLSYLNETVTVSASLESVRGNRSLFTDLEAENDVLHCVAFAVPKSSSNEEVMFLTVQVKGPTQEFKKRTTVMVKNEDSLVFVQTDKSIYKPGQTVKFRVVSMDENFHPLNELIPLVYIQDPKGNRIAQWQSFQLEGGLKQFSFPLSSEPFQGSYKVVVQKKSGGRTEHPFTVEEFVLPKFEVQVTVPKIITILEEEMNVSVCGLYTYGKPVPGHVTVSICRKYSDASDCHGEDSQAFCEKFSGQLNSHGCFYQQVKTKVFQLKRKEYEMKLHTEAQIQEEGTVVELTGRQSSEITRTITKLSFVKVDSHFRQGIPFFGQVRLVDGKGVPIPNKVIFIRGNEANYYSNATTDEHGLVQFSINTTNVMGTSLTVRVNYKDRSPCYGYQWVSEEHEEAHHTAYLVFSPSKSFVHLEPMSHELPCGHTQTVQAHYILNGGTLLGLKKLSFYYLIMAKGGIVRTGTHGLLVKQEDMKGHFSISIPVKSDIAPVARLLIYAVLPTGDVIGDSAKYDVENCLANKVDLSFSPSQSLPASHAHLRVTAAPQSVCALRAVDQSVLLMKPDAELSASSVYNLLPEKDLTGFPGPLNDQDNEDCINRHNVYINGITYTPVSSTNEKDMYSFLEDMGLKAFTNSKIRKPKMCPQLQQYEMHGPEGLRVGFYESDVMGRGHARLVHVEEPHTETVRKYFPETWIWDLVVVNSAGVAEVGVTVPDTITEWKAGAFCLSEDAGLGISSTASLRAFQPFFVELTMPYSVIRGEAFTLKATVLNYLPKCIRVSVQLEASPAFLAVPVEKEQAPHCICANGRQTVSWAVTPKSLGNVNFTVSAEALESQELCGTEVPSVPEHGRKDTVIKPLLVEPEGLEKETTFNSLLCPSGGEVSEELSLKLPPNVVEESARASVSVLGDILGSAMQNTQNLLQMPYGCGEQNMVLFAPNIYVLDYLNETQQLTPEIKSKAIGYLNTGYQRQLNYKHYDGSYSTFGERYGRNQGNTWLTAFVLKTFAQARAYIFIDEAHITQALIWLSQRQKDNGCFRSSGSLLNNAIKGGVEDEVTLSAYITIALLEIPLTVTHPVVRNALFCLESAWKTAQEGDHGSHVYTKALLAYAFALAGNQDKRKEVLKSLNEEAVKKDNSVHWERPQKPKAPVGHFYEPQAPSAEVEMTSYVLLAYLTAQPAPTSEDLTSATNIVKWITKQQNAQGGFSSTQDTVVALHALSKYGAATFTRTGKAAQVTIQSSGTFSSKFQVDNNNRLLLQQVSLPELPGEYSMKVTGEGCVYLQTSLKYNILPEKEEFPFALGVQTLPQTCDEPKAHTSFQISLSVSYTGSRSASNMAIVDVKMVSGFIPLKPTVKMLERSNHVSRTEVSSNHVLIYLDKVSNQTLSLFFTVLQDVPVRDLKPAIVKVYDYYETDEFAIAEYNAPCSKDLGNA
Consider B1, for which the binding result was “binds”.
